Measurements reported in patent US9783523B2, “N-acylimino heterocyclic compounds” (BASF SE, priority 2013, dated 2017).
Some entries share one result that the patent states for a list of compounds. For some assays here: At least one structure is not confirmed: it was looked up by name or label, or the drawing left a doubt.

Experiments:
Format in all cases: in vivo
Myzus persicae = assay: Green peach aphid (Myzus persicae), systemic control, liquid artificial diet under membrane in 96-well microtiter plates; details: 2500 ppm; adult aphids on treated diet, 3 days
Source text: General conditions: If not otherwise specified, most test solutions are to be prepared as follows: The active compound is to be dissolved at the desired concentration in a mixture of 1:1 (vol:vol) distilled water:acteon. Further, the test solutions are to be prepared at the day of use (and, if not otherwised specified, in general at concentrations wt/vol).
For evaluating control of green peach aphid (Myzus persicae) through systemic means, the test unit consists of 96-well-microtiter plates containing liquid artificial diet under an artificial membrane.
The compounds are formulated using a solution containing 75% v/v water and 25% v/v DMSO. Different concentrations of formulated compounds are pipetted into the aphid diet, using a custom built pipetter, at two replications.
After application, 5-8 adult aphids are placed on the artificial membrane inside the microtiter plate wells. The aphids are then allowed to suck on the treated aphid diet and incubated at about 23+1° C. and about 50+5% relative humidity for 3 days. Aphid mortality and fecundity is then visually assessed.

Anthonomus grandis = assay: Boll weevil (Anthonomus grandis), eggs on insect diet in 24-well microtiter plates; details: 2500 ppm; egg and larval mortality, 5 days
Protocol: The compounds were formulated in 3:1 (vol:vol) water:DMSO.
For evaluating control of boll weevil (Anthonomus grandis) the test unit consisted of 24-well-microtiter plates containing an insect diet and 20-30 A. grandis eggs. Different concentrations of formulated compounds were sprayed onto the insect diet at 20 μl, using a custom built micro atomizer, at two replications. After application, the microtiter plates were incubated at 23±1° C. and 50±5% relative humidity for 5 days. Egg and larval mortality was then visually assessed.

Megoura viciae = assay: Vetch aphid (Megoura viciae), sprayed bean leaf disks in microtiter plates; details: 2500 ppm, 6 days
Protocol: The active compounds were formulated in 3:1 (vol:vol) water:DMSO with different concentrations of formulated compounds.
Bean leaf disks were placed into microtiterplates filled with 0.8% agar-agar and 2.5 ppm OPUS™. The leaf disks were sprayed with 2.5 μl of the test solution and 5 to 8 adult aphids were placed into the microtiter plates which were then closed and kept at 23±1° C. and 50±5% relative humidity under fluorescent light for 6 days. Mortality was assessed on the basis of vital, reproduced aphids. Aphid mortality and fecundity was then visually assessed.

Aphis craccivora = assay: Cowpea aphid (Aphis craccivora), potted cowpea plants sprayed; details: 500 ppm; plant spray, after 72 hours
Protocol: The active compound is dissolved at the desired concentration in a mixture of 1:1 (vol:vol) distilled water:acetone. Surfactant (Alkamuls® EL 620) is added at a rate of 0.1% (vol/vol). The test solution is prepared at the day of use.
Potted cowpea plants are colonized with approximately 50-100 aphids of various stages by manually transferring a leaf tissue cut from infested plant 24 hours before application. Plants are sprayed after the pest population has been recorded. Treated plants are maintained on light carts at about 28° C. Percent mortality is assessed after 72 hours.

Dichromothrips corbetti = assay: Orchid thrips (Dichromothrips corbetti), floral-immersion technique; details: 500 ppm; flowers dipped, 72 hours after treatment
Protocol: Dichromothrips corbetti adults used for bioassay are obtained from a colony maintained continuously under laboratory conditions. For testing purposes, the test compound is diluted in a 1:1 mixture of acetone:water (vol:vol), plus 0.01% vol/vol Alkamuls® EL 620 surfactant.
Thrips potency of each compound is evaluated by using a floral-immersion technique. Plastic petri dishes are used as test arenas. All petals of individual, intact orchid flowers are dipped into treatment solution and allowed to dry. Treated flowers are placed into individual petri dishes along with about 20 adult thrips. The petri dishes are then covered with lids. All test arenas are held under continuous light and a temperature of about 28° C. for duration of the assay. After 3 days, the numbers of live thrips are counted on each flower, and along inner walls of each petri dish. The percent mortality is recorded 72 hours after treatment.

Nephotettix virescens = assay: Rice green leafhopper (Nephotettix virescens), sprayed rice seedlings; details: 300 ppm, after 72 hours
Protocol: (§1) Rice seedlings are cleaned and washed 24 hours before spraying. The active compounds are formulated in 50:50 acetone:water (vol:vol), and 0.1% vol/vol surfactant (EL 620) is added. Potted rice seedlings are sprayed with 5 ml test solution, air dried, placed in cages and inoculated with 10 adults. Treated rice plants are kept at about 28-29° C. and relative humidity of about 50-60%. Percent mortality is recorded after 72 hours.

Plutella xylostella = assay: Diamond back moth (Plutella xylostella), dipped cabbage leaves; details: 500 ppm; 3rd instar larvae, 72 hours after treatment
Protocol: The active compound is dissolved at the desired concentration in a mixture of 1:1 (vol:vol) distilled water:aceteone. Surfactant (Alkamuls® EL 620) is added at a rate of 0.1% (vol/vol). The test solution is prepared at the day of use.
Leaves of cabbage were dipped in test solution and air-dried. Treated leaves were placed in petri dish eslined with moist filter paper and inoculated with ten 3rd instar larvae. Mortality was recorded 72 hours after treatment. Feeding damages were also recorded using a scale of 0-100%.

Spodoptera eridania = assay: Southern armyworm (Spodoptera eridania), sprayed lima bean plants; details: 300 ppm; larvae, 4 days after treatment
Protocol: The active compounds were formulated in cyclohexanone as a 10,000 ppm solution supplied in tubes. The tubes were inserted into an automated electrostatic sprayer equipped with an atomizing nozzle and they served as stock solutions for which lower dilutions were made in 50% acetone:50% water (v/v). A nonionic surfactant (Kinetic®) was included in the solution at a volume of 0.01% (v/v).
Lima bean plants (variety Sieva) were grown 2 plants to a pot and selected for treatment at the 1st true leaf stage. Test solutions were sprayed onto the foliage by an automated electrostatic plant sprayer equipped with an atomizing spray nozzle. The plants were dried in the sprayer fume hood and then removed from the sprayer. Each pot was placed into perforated plastic bags with a zip closure. About 10 to 11 armyworm larvae were placed into the bag and the bags zipped closed. Test plants were maintained in a growth room at about 25° C. and about 20-40% relative humidity for 4 days, avoiding direct exposure to fluorescent light (24 hour photoperiod) to prevent trapping of heat inside the bags. Mortality and reduced feeding were assessed 4 days after treatment, compared to untreated control plants.

Heliothis virescens = assay: Tobacco budworm (Heliothis virescens), eggs on insect diet in 96-well microtiter plates; details: 2500 ppm; egg and larval mortality, 5 days
Protocol: For evaluating control of tobacco budworm (Heliothis virescens) the test unit consisted of 96-well-microtiter plates containing an insect diet and 15-25 H. virescens eggs.
The compounds were formulated using a solution containing 75% v/v water and 25% v/v DMSO. Different concentrations of formulated compounds were sprayed onto the insect diet at 10 μl, using a custom built micro atomizer, at two replications.
After application, microtiter plates were incubated at about 28+1° C. and about 80+5% relative humidity for 5 days. Egg and larval mortality was then visually assessed.

Ceratitis capitata = assay: Mediterranean fruitfly (Ceratitis capitata), eggs on insect diet in microtiter plates; details: 2500 ppm; egg and larval mortality, 5 days
Protocol: For evaluating control of Mediterranean fruitfly (Ceratitis capitata) the test unit consisted of microtiter plates containing an insect diet and 50-80 C. capitata eggs.
The compounds were formulated using a solution containing 75% v/v water and 25% v/v DMSO. Different concentrations of formulated compounds were sprayed onto the insect diet at 5 μl, using a custom built micro atomizer, at two replications.
After application, microtiter plates were incubated at about 28±1° C. and about 80±5% relative humidity for 5 days. Egg and larval mortality was then visually assessed.

Nilaparvata lugens = assay: Rice brown plant hopper (Nilaparvata lugens), sprayed rice seedlings; details: 500 ppm, after 72 hours
Protocol: as §1, with “compounds is” for “compounds are”, “acetone:water (vol:vol)” for “acetone:water (vol:vol),”, “620) was” for “620) is”

Measured: mortality in comparison with untreated controls

CC(=NOC1CCNCC1)C(=O)N=c1ccccn1Cc1ccc(Cl)nc1 [Compound I-446]
at least 75%: Myzus persicae | Anthonomus grandis

O=C(N=c1ccccn1Cc1ccc(Cl)nc1)C(Cc1ccccc1)=NOCc1ccc(Cl)cc1 [Compound I-35]
at least 75%: Myzus persicae | Megoura viciae | Aphis craccivora | Dichromothrips corbetti | Nephotettix virescens | Plutella xylostella | Spodoptera eridania

COc1cccc(C2CC(C(=O)N=c3ccccn3Cc3ccc(Cl)nc3)=NO2)c1 (racemic) [Compound I-580]
at least 75%: Myzus persicae | Megoura viciae | Anthonomus grandis

COc1ccc(C2CC(C(=O)N=c3ccccn3Cc3ccc(Cl)nc3)=NO2)cc1OC (racemic) [Compound I-575]
at least 75%: Myzus persicae | Megoura viciae | Anthonomus grandis | Heliothis virescens

O=C(N=c1ccccn1Cc1ccc(Cl)nc1)C1=NOC(C(F)(F)F)C1 (racemic) [Compound I-582]
at least 75%: Myzus persicae | Aphis craccivora | Nephotettix virescens

O=C(N=c1ccccn1Cc1ccc(Cl)nc1)C1=NOC(c2ccc(Cl)cc2)C1 (racemic) [Compound I-570]
at least 75%: Myzus persicae | Megoura viciae | Aphis craccivora | Dichromothrips corbetti | Anthonomus grandis

O=C(C=NOCCOc1ccccc1)N=c1ccccn1Cc1ccc(Cl)nc1 [Compound I-414]
at least 75%: Myzus persicae | Ceratitis capitata

CC(=NNc1ccc(C)cc1C)C(=O)N=c1ccccn1Cc1ccc(Cl)nc1 [Compound I-331]
at least 75%: Myzus persicae | Megoura viciae | Aphis craccivora | Dichromothrips corbetti | Nephotettix virescens

O=C(N=c1ccccn1Cc1ccc(Cl)nc1)C(=NOCc1c(F)c(F)c(F)c(F)c1F)C1CC1 (mixture of isomers) [Compound I-147]
at least 75%: Dichromothrips corbetti | Nilaparvata lugens

CC(C)CON=C(C(=O)N=c1ccccn1Cc1ccc(Cl)nc1)C1CC1 (mixture of isomers) [Compound I-480]
at least 75%: Myzus persicae | Megoura viciae | Aphis craccivora | Dichromothrips corbetti | Nephotettix virescens

O=C(N=c1ccccn1Cc1ccc(Cl)nc1)C1=NOC(c2ccc(F)c(F)c2)C1 (racemic) [Compound I-578]
at least 75%: Megoura viciae | Anthonomus grandis

CC1ON=C(C(=O)N=c2ccccn2Cc2ccc(Cl)nc2)C1C (centres unmarked) [Compound I-581]
at least 75%: Myzus persicae | Aphis craccivora | Nephotettix virescens

O=C(N=c1ccccn1Cc1ccc(Cl)nc1)C1=NOC(c2ccc(F)cc2)C1 (racemic) [Compound I-577]
at least 75%: Myzus persicae | Megoura viciae | Aphis craccivora | Anthonomus grandis
